Reference: patent US20180371095A1
These are yes or no findings as the source states them, for the method shown. Some entries that bind do so weakly or less than the wild type.

The chains behind the UniProt entries cited, without tags or fusion partners. Residues count along the entry.
UniProt Q9Y279, residues 20-399: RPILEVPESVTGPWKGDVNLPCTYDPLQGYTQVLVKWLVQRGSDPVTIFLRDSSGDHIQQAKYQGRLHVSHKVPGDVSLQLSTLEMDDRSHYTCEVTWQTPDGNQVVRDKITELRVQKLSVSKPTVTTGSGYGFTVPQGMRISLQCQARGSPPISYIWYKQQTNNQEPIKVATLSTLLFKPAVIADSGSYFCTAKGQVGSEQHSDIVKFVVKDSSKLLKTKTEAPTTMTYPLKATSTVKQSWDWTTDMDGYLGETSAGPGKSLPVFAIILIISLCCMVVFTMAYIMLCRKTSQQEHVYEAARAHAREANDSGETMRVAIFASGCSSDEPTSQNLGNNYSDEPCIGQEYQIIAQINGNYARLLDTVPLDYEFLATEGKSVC
UniProt Q9Y286, residues 19-357: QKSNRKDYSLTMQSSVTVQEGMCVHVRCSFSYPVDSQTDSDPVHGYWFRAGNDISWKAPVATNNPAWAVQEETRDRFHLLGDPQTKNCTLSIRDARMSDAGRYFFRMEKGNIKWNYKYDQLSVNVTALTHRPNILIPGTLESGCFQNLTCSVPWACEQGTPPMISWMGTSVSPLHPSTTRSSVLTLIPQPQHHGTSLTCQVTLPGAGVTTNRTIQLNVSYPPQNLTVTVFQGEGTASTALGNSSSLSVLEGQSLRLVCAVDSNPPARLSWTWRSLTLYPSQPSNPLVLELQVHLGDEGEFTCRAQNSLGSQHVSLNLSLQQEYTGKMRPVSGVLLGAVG

Assays:
[1] = target: naturally expressed VSIG-4 on M2c macrophages (human) (UniProt Q9Y279); experiment: flow cytometry, 1 ug/mL to 10 ug/mL, anti-Fc PE detection
[2] = target: human VSIG-4 (hVSIG4)/eGFP HEK transfectants (human) (UniProt Q9Y279); experiment: flow cytometry, titration on VSIG-4 transfected cells
[3] = target: human VSIG-4 (hVSIG4)/eGFP HEK transfectants (human) (UniProt Q9Y279); experiment: flow cytometry, anti-Fc APC detection
[4] = target: human VSIG-4 (hVSIG4)/eGFP HEK transfectants (human) (UniProt Q9Y279); experiment: flow cytometry, 500 ng/mL to 6 ug/mL
[5] = target: human VSIG-4 (hVSIG4)/eGFP HEK transfectants (human) (UniProt Q9Y279); experiment: flow cytometry
[6] = target: human VSIG-4 (hVSIG4)/eGFP HEK transfectants (human) (UniProt Q9Y279); experiment: flow cytometry, 2 ug/mL rhSiglec-7/Fc plus anti-Fc APC

Measured: binding

recombinant human Siglec-7 (rhSiglec-7)/Fc protein (from UniProt Q9Y286 19-357) (Fc fusion)
binds: all assays above
